Source: US8894993B2, “Mitochondria-targeted antioxidants” (Natreon Inc., priority 2006, dated 2014)
Like-named read-outs stand apart in the source and are kept apart here.

Columns and labels:
[1] = DBPs isolated from animal liver mitochondria (chicken); settings: endogenous level
[2] = DBPs isolated from animal liver mitochondria (goat); settings: endogenous level
[3] = DBP products in mice liver mitochondria before and after DBPs treatment, HPTLC; assay type: in vivo, Swiss Albino mice; settings: control mice
Experimental: Mitochondria were isolated from heart and liver of chicken, goat and mice following a published procedure (Liu Y, Deng F, Zhao R and Qu S, Chemosphere, 40(8):851-854, 2000). […] The tissue was cut into small pieces, homogenized and centrifuged at 900 g for one minute. The supernatant was again centrifuged twice, for 20 minutes each time at 900 g. The sediment at each step was discarded. The clear supernatant was centrifuged twice at 12,000 g, 20 minutes each time, to form pellets of a mitochondria-enriched fraction. The fraction was divided into two parts. One part was resuspended in a measured volume of distilled water and sonicated (10 min×2). […] The two extracts were subjected to comprehensive HPTLC and HPLC analyses for detection and quantitation of DBPs and their equivalents. […] One hour after administration the animals were sacrificed and mitochondria from liver were isolated and analyzed as described for Example 6. […] Mobile Phase—Chloroform:Methanol 90:10 Sample application—CAMAG LINOMAT 5 (Automated applicator) Detection—240 nm (CAMAG TLC SCANNER 3) 3-OH-DBP and 3,8-(OH)2-DBP (and their conjugates) were detected in mitochondria of control mice by HPTLC. Administration of DBPs to the animals increased the amount of DBPs and its products in mitochondria as detected by using authentic markers of the two DBPs (Table 2).

[4] = cited from earlier work

Structure (SMILES)	amount in mitochondria enriched fraction isolated from liver [1]	amount in mitochondria enriched fraction isolated from liver [2]	Amount in mitochondria before DBP treatment [3]	Plasma level ([4]; normal human volunteers 20-40 years, n = 5)	Plasma level ([4]; normal human volunteers 41-65 years, n = 40)
O=c1oc2cc(O)ccc2c2ccc(O)cc12 [3,8-(OH)2-DBP, 3,8-dihydroxydibenzo-α-pyrone]	0.67 ng/mg mitochondria enriched fraction	10.00 ng/mg mitochondria enriched fraction	0.5 nmol/gm wet wt		
O=c1oc2cc(O)ccc2c2cc(-c3cc4c(cc3O)c(=O)oc3cc(O)ccc34)c(O)cc12 [3,8-(OH)2-DBP-dimer, 3,3′,8,8′-tetrahydroxy-9,9′-bis-dibenzo-α-pyrone]			22.9 nmol/gm wet wt		
O=c1oc2cc(O)ccc2c2ccccc12 [3-OH-DBP, 3-hydroxydibenzo-α-pyrone]	0.78 ng/mg mitochondria enriched fraction	80.00 ng/mg mitochondria enriched fraction			
COC1=C(OC)C(=O)C(C/C=C(\C)CC/C=C(\C)CC/C=C(\C)CC/C=C(\C)CC/C=C(\C)CC/C=C(\C)CC/C=C(\C)CC/C=C(\C)CC/C=C(\C)CCC=C(C)C)=C(C)C1=O [CoQ10]				1726.8 ± 215.75 µg/L	897.9 ± 302 µg/L
